In publication PMC12040169 (PLOS Biology, 2025):
This is one part of the list.

These compounds were tested on T1, CTL2-GFP (C. trachomatis L2/434/Bu, GFP-expressing). Details: bulk GFP, single well; 28.5 h, 10 µM; inhibitor.
T1 construct: L2/434/Bu, GFP-expressing
Parameters: species or system HeLa; Intracellular C. trachomatis growth in HeLa cells, bulk GFP fluorescence relative to DMSO

First: Cc1nc(C(Cc2ccsc2)NC(=O)C(C)(C)N)sc1C (stereo not drawn) [CBK284775]
Second: Cc1ncccc1C(=O)NC(CC(C)C)c1nnc2n1CCNCC2 (stereo not drawn) [CBK307348]
The “% of control remaining” value of the first is lower: 156.353% for the first, 194.053% for the second.

Going from `OC1CCN(c2ccc(-c3ccccc3)nn2)CC1` [CBK021753] to `Cn1c(Sc2ccc(C(=O)O)cc2[N+](=O)[O-])nnc1-c1ccccc1` [CBK265047], the “% of control remaining” value rises from 112.516% to 124.1%.

Compared with `COc1ccc(CC(=O)O)cc1S(=O)(=O)Nc1ccc(SC)cc1` [CBK298315], `COc1ccc(OC)c(NC(=O)COc2ccc(C(C)C)cc2)c1` [CBK263498] is lower in “% of control remaining” value: 117.424% for the first, 89.7732% for the second.

Compared with `CC(=O)N1CCCC[C@H]2[C@H]1C[C@@H](c1ccccc1)N2C(=O)CN1CCCCCC1` [CBK286120], `O=C(CN1CCC(c2ccccc2F)CC1)N1CCOCC1` [CBK283548] is higher in “% of control remaining” value: 92.0803% for the first, 119.633% for the second.

First: FC(F)(F)c1nc2ccccc2nc1OC1CCOC1 (stereo not drawn) [CBK115806]
Second: O=C(c1cnc2ccccc2n1)N1CCc2ccccc21 [CBK200267]
The “% of control remaining” value of the first is lower: 97.6751% for the first, 122.808% for the second.

Going from `CCOc1cc(OCC)cc(C(=O)N2CCCC3(CC(=O)c4ccc(C)cc4O3)C2)c1` (stereo not drawn) [CBK168067] to `CCOc1ccc(N(Cc2cc3cc(C)ccc3nc2O)C(=O)c2ccccc2OC)cc1` [CBK265427], the “% of control remaining” value falls from 103.214% to 100%.

Going from `Cc1c(C(N)=O)sc(NC(=O)c2cccnc2)c1C#N` [CBK268163] to `Cc1ccc2nc(NC(=O)COc3ccccc3)sc2c1` [CBK287335], the “% of control remaining” value rises from 103.009% to 146.507%.

First: COc1cc(-c2cncc(NCCCO)n2)cc(OC)c1OC [CBK065271]
Second: COc1cc(-c2nnc(NC(C)=O)o2)cc(OC)c1OC [CBK287698]
The “% of control remaining” value of the first is higher: 171.872% for the first, 97.3232% for the second.

First: O=C(Nc1cc(N2CCNCC2)c2occc2c1)c1cccc(C(F)(F)F)c1 [CBK061762C]
Second: O=C(O)c1cc(NC(=O)c2cccc(Oc3ccc([N+](=O)[O-])cc3)c2)cc(C(=O)O)c1 [CBK263528]
The “% of control remaining” value of the first is lower: 73.769% for the first, 125.379% for the second.

Going from `CN1C(=O)c2cccc3c(S(=O)(=O)N4CCN(S(=O)(=O)c5ccc6c7c(cccc57)C(=O)N6C)CC4)ccc1c23` [CBK269140] to `CCOc1ccc(S(=O)(=O)N2CCCCC2)cc1-c1nc(=O)c2c([nH]1)c(C(C)(C)C)nn2C` [CBK265119], the “% of control remaining” value rises from 152.545% to 171.825%.

First: O=C(NC(c1ccccc1)c1ccco1)C1CCN(C(=O)c2cccs2)CC1 (stereo not drawn) [CBK059854]
Second: CSc1nsc(SCC(=O)N2CCN(C(c3ccccc3)c3ccccc3)CC2)n1 [CBK268071]
The “% of control remaining” value of the first is lower: 110.022% for the first, 118.962% for the second.

First: Cc1cccc(C(=O)Nc2ccccc2C(=O)Nc2cccc(C(=O)O)c2C)c1 [CBK265911]
Second: Cc1onc(-c2ccccc2)c1C(=O)NNC(=S)NC(=O)c1ccc(Cl)cc1 [CBK267493]
The “% of control remaining” value of the first is higher: 113.868% for the first, 106.159% for the second.

First: Cc1ccccc1OCC(=O)Nc1c(C)n[nH]c1C [CBK266046C]
Second: Cc1cccc(OCc2nnc(SCC(=O)Nc3cccc4ccccc34)o2)c1C [CBK267153]
The “% of control remaining” value of the first is lower: 119.918% for the first, 120.311% for the second.

Compared with `CN(CC(=O)NCc1ccccn1)S(=O)(=O)c1ccc(Br)cc1` [CBK265127], `O=C(CN(Cc1ccccc1)S(=O)(=O)c1cc(Cl)ccc1Cl)Nc1cccc(F)c1` [CBK264664] is higher in “% of control remaining” value: 132.028% for the first, 134.724% for the second.

Going from `CCOC(=O)C1(Cc2ccc(F)cc2F)CCCN(S(=O)(=O)CC)C1` (stereo not drawn) [CBK307655] to `CCOCCN1CCC(C(=O)NC(c2ccc(F)cc2)c2nc(OC)cc(OC)n2)CC1` (stereo not drawn) [CBK148087], the “% of control remaining” value rises from 124.648% to 151.453%.

First: NCc1ccc(-c2nc3ccccc3[nH]2)nc1 [CBK024396C]
Second: Ic1ccc(NCc2cn3ccccc3n2)cc1 [CBK058563]
The “% of control remaining” value of the first is lower: 93.8528% for the first, 118.122% for the second.

Going from `N#Cc1ccc(CSc2ncccc2C(=O)O)cc1` [CBK287187] to `O=C(c1cccc2ncccc12)N1CCC(c2ccncc2)CC1` [CBK283798], the “% of control remaining” value falls from 135.62% to 104.844%.

Going from `Cc1cc(C)c2nc(-c3ccccn3)cc(C(=O)NCc3cccs3)c2c1` [CBK267772] to `C[C@H](c1ccccc1)n1c(=O)[nH]c2ncc(-c3cccc(C(=O)NCCN(C)C)c3)nc21` [CBK064204], the “% of control remaining” value rises from 129.786% to 144.504%.

Going from `O=c1[nH]c(=O)c2cc(S(=O)(=O)Nc3ccc(Oc4cccnc4)cc3)ccc2[nH]1` [CBK286386] to `O=c1[nH]c2ccc(NS(=O)(=O)c3ccc4c(c3)OCCCO4)cc2[nH]1` [CBK295315], the “% of control remaining” value rises from 131.33% to 142.992%.

Compared with `O=S(=O)(NCC(Nc1cccc2ccccc12)c1ccccc1)c1ccc(Cl)cc1` (stereo not drawn) [CBK264087], `O=C(C1=C(O)C(=O)N(Cc2cccnc2)C1c1cccc(Oc2ccccc2)c1)c1ccc(Cl)cc1` (stereo not drawn) [CBK264698] is higher in “% of control remaining” value: 68.0384% for the first, 100% for the second.

Going from `CC(=O)c1ccc(C(=O)Nc2nc3c(s2)COc2ccccc2-3)cc1` [CBK287363] to `CC(=O)c1ccc(-c2ccc3ccc(N)nc3n2)cc1` [CBK061862], the “% of control remaining” value falls from 134.676% to 122.912%.

First: NC(=O)CO[C@@H]1CO[C@H]2[C@@H]1OC[C@@H]2NCc1ccccc1 [CBK289479]
Second: Cc1ccccc1NC(=O)NCc1ccccc1 [CBK105833]
The “% of control remaining” value of the first is lower: 95.2245% for the first, 123.415% for the second.

Going from `O=c1[nH]nc2c3ccc(Cl)cc3ncn12` [CBK283988] to `O=c1[nH]c2cc3nn[nH]c3cc2[nH]1` [CBK018154], the “% of control remaining” value falls from 110.571% to 93.6873%.

Going from `CNC(=O)c1nn(CCCc2ccc(OC)cc2)c2ccccc12` [CBK105842] to `CN1CCN(c2ccc(NC(=O)c3ccc(OCc4ccccc4)cc3)cc2)CC1` [CBK266124], the “% of control remaining” value rises from 67.4073% to 197.568%.

Going from `CCc1cnc(CN(C)C2CCN(Cc3cccc(C(N)=O)c3)C2)o1` (stereo not drawn) [CBK305357] to `CCN(CC)C(=O)CN1CCC(Oc2cncc(Oc3ccc(OC)c(OC)c3)n2)C1` (stereo not drawn) [CBK084404], the “% of control remaining” value falls from 142.988% to 97.8092%.

First: COc1cc([C@@]23CC[C@@H](NC(=O)Nc4cc(F)ccc4F)C[C@@H]2N(C)CC3)ccc1OC(F)F [CBK073834]
Second: COc1cc(F)cc(OC2CCNCC2)c1NC(=O)c1cnccn1 [CBK050296T]
The “% of control remaining” value of the first is lower: 75.4762% for the first, 107.114% for the second.

First: Cc1cc2ccccc2n2c(=O)n(CC(=O)N3CCCC3)nc12 [CBK283880]
Second: O=C(c1ccco1)N1CCC[C@@H]1Cn1c(=O)oc2ccccc21 [CBK284538]
The “% of control remaining” value of the first is lower: 114.272% for the first, 180.048% for the second.

Going from `CC(=O)Nc1ccc(Oc2c(F)c(F)c(/C=C/CN3CCOCC3)c(F)c2F)cc1` [CBK269302C] to `COc1ccc(C(C)c2cc3c(cc2OCC(=O)O)OCO3)cc1` (stereo not drawn) [CBK200108], the “% of control remaining” value falls from 136.69% to 104.917%.

Going from `Cn1ccnc1C1(O)CC2CCC(C1)N2C(=O)c1ccc(F)cc1` (stereo not drawn) [CBK284086] to `CCc1nc2c(OCCOc3ccc(F)cc3)cccn2c1N(C)C(=O)c1ccncc1` [CBK147472], the “% of control remaining” value rises from 117.858% to 147.692%.

Compared with `C(=N\c1ccc(-c2nc3ccc(/N=C/c4ccncc4)cc3[nH]2)cc1)/c1ccncc1` [CBK261681], `COc1ccc(-c2ccc(/C=N/NC(=O)c3ccncc3)o2)c([N+](=O)[O-])c1` [CBK262156] is lower in “% of control remaining” value: 92.434% for the first, 87.972% for the second.

First: Cc1ccc(NC(=O)Cn2nc(C)c([N+](=O)[O-])c2C)cc1Cl [CBK268336]
Second: CCc1c(C)nc2ccc(NC(C)=O)cc2c1SCCC(=O)O [CBK159465T]
The “% of control remaining” value of the first is higher: 154.51% for the first, 106.715% for the second.

Going from `O=C1CCC(=O)N1CCOc1nccnc1N1CCN(Cc2ccc(Cl)cc2)CC1` [CBK084290] to `CCCCOc1nccnc1-c1ccsc1` [CBK106778], the “% of control remaining” value falls from 108.097% to 100%.

Compared with `CC(C)NC(=O)c1sc2ccccc2c1C1CN(Cc2c[nH]nc2C(C)(C)C)CCO1` (stereo not drawn) [CBK285535], `CC(C)C(=O)N1CC2(CCN(CCCCC3NC(=O)NC3=O)CC2)c2ccccc21` (stereo not drawn) [CBK131471] is lower in “% of control remaining” value: 131.126% for the first, 101.915% for the second.

Compared with `Fc1ccc(Cn2nnc(-c3ccncc3)n2)c(Cl)c1` [CBK288534], `Cc1ccccc1CSc1cccc(F)c1` [CBK002913] is lower in “% of control remaining” value: 119.566% for the first, 101.176% for the second.

Going from `C(=C\c1ccccc1)/CSc1nnc(CSc2nc3ccccc3s2)n1-c1ccccc1` [CBK264467] to `COc1ccc(-c2nnc(SC(C)c3nnc(-c4ccccc4)o3)n2CC(C)C)cc1` (stereo not drawn) [CBK297108], the “% of control remaining” value falls from 125.797% to 94.2012%.

Going from `COc1cc(F)ccc1-c1cnc(N)c2ncccc12` [CBK067585] to `COc1ccc(-c2nnc(N)[nH]2)cc1` [CBK028843], the “% of control remaining” value falls from 104.827% to 94.7709%.

First: O=C(OCCC1SC(NC2CC3C=CC2C3)=NC1=O)c1cc(C(F)(F)F)ccc1C(F)(F)F (stereo not drawn) [CBK200058T]
Second: O=C(Cc1ccccc1)Nc1nc(OCC(F)(F)F)cnc1-c1ccsc1 [CBK145298]
The “% of control remaining” value of the first is higher: 124.733% for the first, 106.691% for the second.

Compared with `O=S(=O)(O)CCCSCCCS(=O)(=O)O` [CBK278307N], `O=C1CCN([C@H]2C[C@@H](O)[C@@H](CO)O2)C(=O)N1` [CBK201288] is higher in “% of control remaining” value: 100% for the first, 114.683% for the second.

First: CC(C)CNc1ccc(-c2cccc(N(C)C)c2)cn1 [CBK037603]
Second: Brc1ccc(C2(c3nnc(C4CC4)o3)CCOCC2)cc1 [CBK305498]
The “% of control remaining” value of the first is lower: 98.6584% for the first, 113.663% for the second.
